Laboratory results: paper PMC7019889
No constants are given. Whether binding was seen depends on the method and setting. In cells and extracts the contact can be indirect. Some binding calls cover weakened binding; strength is not graded here. Sequences can lack the tags named with a protein.

Molecular target: T1, Flag-tagged MYBBP1A (160 kDa myb-binding protein, Myb-binding protein 1α) (UniProt Q9BQG0)
T1 sequence: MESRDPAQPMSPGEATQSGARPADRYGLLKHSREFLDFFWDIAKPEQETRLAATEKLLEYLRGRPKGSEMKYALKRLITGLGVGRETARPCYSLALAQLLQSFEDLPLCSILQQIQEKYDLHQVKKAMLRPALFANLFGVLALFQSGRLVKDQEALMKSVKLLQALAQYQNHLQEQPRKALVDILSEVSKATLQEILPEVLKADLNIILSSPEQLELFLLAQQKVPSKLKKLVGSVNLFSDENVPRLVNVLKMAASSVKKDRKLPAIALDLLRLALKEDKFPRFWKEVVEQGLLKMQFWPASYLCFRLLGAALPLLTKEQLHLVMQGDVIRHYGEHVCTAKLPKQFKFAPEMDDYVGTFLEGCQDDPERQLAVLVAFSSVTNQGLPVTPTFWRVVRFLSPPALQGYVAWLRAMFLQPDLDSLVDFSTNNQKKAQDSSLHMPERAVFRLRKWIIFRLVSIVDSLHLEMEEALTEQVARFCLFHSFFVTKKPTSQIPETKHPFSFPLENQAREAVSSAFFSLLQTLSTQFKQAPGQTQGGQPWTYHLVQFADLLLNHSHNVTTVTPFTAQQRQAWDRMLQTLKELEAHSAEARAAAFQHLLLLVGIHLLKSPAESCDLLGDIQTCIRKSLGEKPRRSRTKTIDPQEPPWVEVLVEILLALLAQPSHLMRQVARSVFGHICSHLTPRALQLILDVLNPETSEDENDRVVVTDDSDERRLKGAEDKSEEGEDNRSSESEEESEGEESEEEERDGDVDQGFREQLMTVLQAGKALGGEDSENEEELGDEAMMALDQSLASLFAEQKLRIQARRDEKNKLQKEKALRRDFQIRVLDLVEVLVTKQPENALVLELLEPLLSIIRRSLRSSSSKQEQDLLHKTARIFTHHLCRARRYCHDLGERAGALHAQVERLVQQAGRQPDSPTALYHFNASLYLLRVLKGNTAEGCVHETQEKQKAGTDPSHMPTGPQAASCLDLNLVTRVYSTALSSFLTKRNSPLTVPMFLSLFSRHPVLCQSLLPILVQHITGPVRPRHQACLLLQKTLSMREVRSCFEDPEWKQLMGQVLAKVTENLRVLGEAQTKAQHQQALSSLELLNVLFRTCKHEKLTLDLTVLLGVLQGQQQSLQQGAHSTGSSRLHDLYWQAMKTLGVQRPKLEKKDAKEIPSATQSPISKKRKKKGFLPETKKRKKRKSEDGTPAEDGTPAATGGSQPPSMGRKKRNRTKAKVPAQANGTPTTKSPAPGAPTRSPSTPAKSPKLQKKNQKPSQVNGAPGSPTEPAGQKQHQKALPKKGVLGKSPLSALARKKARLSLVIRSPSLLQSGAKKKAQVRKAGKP
Assay: co-IP; SH-SY5Y cells co-transfected with Flag-MYBBP1A and HA-USP29; lysis in RIPA buffer, lysate diluted 1:1 with PBS; immunoprecipitation with the indicated antibodies and protein A/G-agarose overnight at 4 °C, in both directions; immunoblot

binding: binds
B1: HA-tagged USP29 (ubiquitin-specific peptidase 29) (enzyme, UniProt Q9HBJ7 1-922)
chain: MISLKVCGFIQIWSQKTGMTKLKEALIETVQRQKEIKLVVTFKSGKFIRIFQLSNNIRSVVLRHCKKRQSHLRLTLKNNVFLFIDKLSYRDAKQLNMFLDIIHQNKSQQPMKSDDDWSVFESRNMLKEIDKTSFYSICNKPSYQKMPLFMSKSPTHVKKGILENQGGKGQNTLSSDVQTNEDILKEDNPVPNKKYKTDSLKYIQSNRKNPSSLEDLEKDRDLKLGPSFNTNCNGNPNLDETVLATQTLNAKNGLTSPLEPEHSQGDPRCNKAQVPLDSHSQQLQQGFPNLGNTCYMNAVLQSLFAIPSFADDLLTQGVPWEYIPFEALIMTLTQLLALKDFCSTKIKRELLGNVKKVISAVAEIFSGNMQNDAHEFLGQCLDQLKEDMEKLNATLNTGKECGDENSSPQMHVGSAATKVFVCPVVANFEFELQLSLICKACGHAVLKVEPNNYLSINLHQETKPLPLSIQNSLDLFFKEEELEYNCQMCKQKSCVARHTFSRLSRVLIIHLKRYSFNNAWLLVKNNEQVYIPKSLSLSSYCNESTKPPLPLSSSAPVGKCEVLEVSQEMISEINSPLTPSMKLTSESSDSLVLPVEPDKNADLQRFQRDCGDASQEQHQRDLENGSALESELVHFRDRAIGEKELPVADSLMDQGDISLPVMYEDGGKLISSPDTRLVEVHLQEVPQHPELQKYEKTNTFVEFNFDSVTESTNGFYDCKENRIPEGSQGMAEQLQQCIEESIIDEFLQQAPPPGVRKLDAQEHTEETLNQSTELRLQKADLNHLGALGSDNPGNKNILDAENTRGEAKELTRNVKMGDPLQAYRLISVVSHIGSSPNSGHYISDVYDFQKQAWFTYNDLCVSEISETKMQEARLHSGYIFFYMHNGIFEELLRKAENSRLPSTQAGVIPQGEYEGDSLYRPA
